# According to the supplement of paper PMC3334620:
# In all, about 33,000 sequences were measured (“E-score (-0.5 to 0.5)”: median about -0.0059, highest 2% from about 0.26 on). The list shows a part of the results.
# Target: T1, Cin5 (UniProt P40917)
# T1 sequence: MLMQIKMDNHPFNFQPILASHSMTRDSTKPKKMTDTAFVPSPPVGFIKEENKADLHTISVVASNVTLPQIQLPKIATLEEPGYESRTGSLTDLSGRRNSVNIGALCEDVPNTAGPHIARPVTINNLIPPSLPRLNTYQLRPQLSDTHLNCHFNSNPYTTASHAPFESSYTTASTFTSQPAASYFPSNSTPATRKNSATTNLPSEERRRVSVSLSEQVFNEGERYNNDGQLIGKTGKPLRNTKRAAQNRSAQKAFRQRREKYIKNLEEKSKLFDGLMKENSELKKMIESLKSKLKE
# Test: PBM E-score (8-mer binding enrichment) (E-score (-0.5 to 0.5)); higher = stronger / more preferred TF binding
# Conditions: protein concentration: 100 nM; construct: GST-full length
# Procedure: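 Universal 'all 10-mer' protein binding microarrays (Agilent AMADID 015681) probed with GST-tagged S. cerevisiae TFs (full-length or DBD) made by in vitro transcription/translation (PURExpress), about 100-200 nM. Bound TF was detected with fluorescent anti-GST. Each ungapped 8-mer (which stands for itself and its reverse complement) is scored by the PBM enrichment score (E-score), a modified Wilcoxon-Mann-Whitney statistic from -0.5 to +0.5, computed with the Universal PBM Analysis Suite. Scale: above 0.35 generally sequence-specific binding.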
row,Sequence,PBM E-score
1,AGCTACTA,0.0811
2,GACTTATC,0.0249
3,CACTTGAC,-0.0926
4,TAGAATGA,0.181
5,ACCAGTCC,-0.243
6,ACTTTTTG,0.0703
7,GTACTACA,0.0748
8,GAGGAATA,0.128
9,ATCCCGAG,0.106
10,ATTAGGCC,-0.0142
11,CATGTTAA,0.178
12,GCCGCGAC,-0.086
13,AATCATCG,-0.0169
14,GGGCGACA,-0.219
15,CGAAATTA,0.133
16,GAACATGA,0.0568
17,CCGCTTAC,0.334
18,ACCTGTAG,-0.0944
19,CATCCCGG,-0.0216
20,ATGTGCCG,-0.26
21,GTGGCAGA,-0.27
22,ATAAGAGG,0.0334
23,ACAAGAAG,0.196
24,ATCGATTG,0.192
25,AACGCCAG,0.00039

row,Sequence,PBM E-score
1,GCAAGGGC,-0.235
2,CTTATGCC,0.0394
3,CACGCGCG,-0.119
4,CCGGCACC,0.0257
5,AACCCTGA,0.131
6,TACAAACA,0.199
7,TTGCCAAA,-0.0109
8,CCCTCGCC,-0.0603
9,CATGCCTA,-0.126
10,GAGCCACA,0.0129
11,ATAGATTG,0.224
12,CGCCAAAG,-0.0824
13,AAACTCAC,0.0125
14,ACGACTGC,-0.141
15,CTGTGCTA,-0.00732
16,CTATCGCA,0.0826
17,GCCTTGTA,-0.115
18,ATGTGACA,0.0297
19,CGTAGGTA,-0.0204
20,CCCAATCA,0.144
21,CAAGTGCG,0.0366
22,AGGCCGGG,-0.293
23,AGATCTCC,-0.119
24,CGCAGAAG,0.082
25,ATACCGGA,0.0611

row,Sequence,PBM E-score
1,GGGTCGAA,-0.178
2,AGAACTAG,-0.117
3,TCGCGCGA,0.143
4,TAACGTTA,0.117
5,ATTGATCC,0.00708
6,AGATCCAA,-0.0116
7,CGAATACC,0.00898
8,ACAGACAG,0.195
9,ACCAGTGG,-0.0886
10,ACTGTCGA,-0.0188
11,GACGTCGA,0.0737
12,GGCCTAAA,-0.157
13,ATCCTTTC,-0.0501
14,CCGATCTA,-0.00311
15,ACAGTGGT,-0.0575
16,GGCGGGGA,0.171
17,CGAAACGC,-0.139
18,AGTAGCGG,0.125
19,GAATGCCA,-0.0651
20,ACACGCGT,0.0639
21,GCGTCAAA,0.00909
22,CGGTTACC,-0.127
23,AGTTGCTC,-0.0649
24,GCAACGCC,-0.122
25,ATATTAAG,0.122

# A section of the results above, for reference:
row,Sequence,PBM E-score
15,CTGTGCTA,-0.00732
16,CTATCGCA,0.0826
17,GCCTTGTA,-0.115
18,ATGTGACA,0.0297
19,CGTAGGTA,-0.0204
20,CCCAATCA,0.144

# The list goes on:

row,Sequence,PBM E-score
1,AACGGCCA,-0.0837
2,CACTGGTC,-0.239
3,AAAACTTT,-0.041
4,AAATGACC,-0.00918
5,AGCTGGGA,-0.182
6,CACAGCCA,-0.0907
7,AGGCCGTC,-0.171
8,CGCCCAGC,0.0549
9,GAGTACCC,-0.0959
10,GCGTAGGA,-0.0406
11,CTGAACAC,0.167
12,AGCCATCC,-0.198
13,AGGTATAG,-0.0316
14,CACGACCA,-0.0834
15,CTACCTGC,-0.0488
16,ATCCGAGA,0.139
17,GTTAAAAA,-0.0143
18,ATCAATTC,0.044
19,CCCGCTTC,-0.17
20,CCAGCGAG,-0.0473
21,ACCAGCCT,-0.138
22,GCTTGTCC,-0.0652
23,CTTGGAAA,0.0193
24,AGGAGGAT,-0.182
25,GGGGGTGA,-0.387

row,Sequence,PBM E-score
1,AACCCACT,0.223
2,CACCGGGC,-0.321
3,AAGCCTAC,-0.168
4,ATTCCGTC,0.226
5,GTGTCCGA,-0.0777
6,AAGACCTT,-0.0603
7,TGTCCAAA,-0.0285
8,GTTGCGCA,-0.0379
9,CTTAGTGC,0.0286
10,GGGGACAC,-0.319
11,CCTTGGAC,-0.239
12,AGCAAGCG,-0.00554
13,GGCAGCCC,-0.179
14,CCATGTCA,-0.0999
15,GAAGGCAC,-0.0161
16,CCTGAACC,-0.0369
17,GTATACAC,-0.0283
18,AGCCGGAG,0.0621
19,AGGATCGA,-0.0937
20,ACAGGCAT,-0.0864
21,ACAAGCCC,-0.175
22,CCGGACCA,-0.219
23,AAGTATAT,0.111
24,ACTTGCGA,0.0628
25,ATGGCGTC,-0.12

row,Sequence,PBM E-score
1,CCATGTCG,0.0349
2,AGCTTCCG,-0.0682
3,CGAATTAA,0.0709
4,AAACGTGC,-0.119
5,CCCATAAC,0.0222
6,AGTTTATA,0.198
7,ATCAGTAG,0.0819
8,ATCCGACC,-0.186
9,ACCCCATC,-0.00878
10,ACAGTTGA,0.0443
11,CATGGACC,-0.106
12,ACTGCGCA,0.12
13,AATTACTG,0.167
14,AGGTAAAG,0.223
15,CGCTAACA,0.0565
16,ATATTTTA,0.201
17,TCTTGCAA,0.0905
18,CGAGTATA,0.206
19,ACATATGC,-0.175
20,CCCAGGGA,-0.362
21,CGAAATCC,0.19
22,TGGAGTAA,0.212
23,ATCCTGAC,0.107
24,AACAGCCT,-0.102
25,AGACCGAC,-0.00815

# As entered above:
# Under PBM E-score, AGACCGAC has the entry -0.00815
# Under PBM E-score, AAACGTGC has the entry -0.119

# The list goes on:

row,Sequence,PBM E-score
1,GCCACCGA,-0.15
2,AGCACTGA,0.00244
3,ACGTTATC,0.179
4,CGATAAGA,0.0385
5,CAACGTAA,0.204
6,ATAATTGC,0.0846
7,CGTCTGAG,-0.0558
8,GGTGGCAA,-0.0788
9,AGAGTTGG,0.0138
10,CAAGGTAC,-0.168
11,CATGTCTC,0.00412
12,CGTTCATC,0.111
13,ATACGTAC,-0.0222
14,AAGAAGTG,0.015
15,ATTACAGA,0.0804
16,CCAAATTC,-0.115
17,AGGGGACA,-0.136
18,ATTGTAGG,0.243
19,CCCTGGAG,-0.292
20,CTATATTA,0.325
21,CCCATAGC,-0.195
22,ATGACCCA,0.181
